Laboratory results: article PMC9337831
These are yes or no findings as the source states them, for the method shown. In cells and extracts the contact can be indirect. Some entries that bind do so weakly or less than the wild type.

Legend:
[1] = biological target: T1, MERTK (human (endogenous in H4006)) (UniProt Q12866); assay: condition: only in OSI-resistant derivative cells (H4006-OSIR); co-IP; serum-starved OSI-resistant cells (H4006-OSIR), with or without 10 min GAS6 or EGF, treated with pervanadate; MERTK or EGFR immunoprecipitated from cell lysates, EGFR and MERTK detected by immunoblot
T1 sequence: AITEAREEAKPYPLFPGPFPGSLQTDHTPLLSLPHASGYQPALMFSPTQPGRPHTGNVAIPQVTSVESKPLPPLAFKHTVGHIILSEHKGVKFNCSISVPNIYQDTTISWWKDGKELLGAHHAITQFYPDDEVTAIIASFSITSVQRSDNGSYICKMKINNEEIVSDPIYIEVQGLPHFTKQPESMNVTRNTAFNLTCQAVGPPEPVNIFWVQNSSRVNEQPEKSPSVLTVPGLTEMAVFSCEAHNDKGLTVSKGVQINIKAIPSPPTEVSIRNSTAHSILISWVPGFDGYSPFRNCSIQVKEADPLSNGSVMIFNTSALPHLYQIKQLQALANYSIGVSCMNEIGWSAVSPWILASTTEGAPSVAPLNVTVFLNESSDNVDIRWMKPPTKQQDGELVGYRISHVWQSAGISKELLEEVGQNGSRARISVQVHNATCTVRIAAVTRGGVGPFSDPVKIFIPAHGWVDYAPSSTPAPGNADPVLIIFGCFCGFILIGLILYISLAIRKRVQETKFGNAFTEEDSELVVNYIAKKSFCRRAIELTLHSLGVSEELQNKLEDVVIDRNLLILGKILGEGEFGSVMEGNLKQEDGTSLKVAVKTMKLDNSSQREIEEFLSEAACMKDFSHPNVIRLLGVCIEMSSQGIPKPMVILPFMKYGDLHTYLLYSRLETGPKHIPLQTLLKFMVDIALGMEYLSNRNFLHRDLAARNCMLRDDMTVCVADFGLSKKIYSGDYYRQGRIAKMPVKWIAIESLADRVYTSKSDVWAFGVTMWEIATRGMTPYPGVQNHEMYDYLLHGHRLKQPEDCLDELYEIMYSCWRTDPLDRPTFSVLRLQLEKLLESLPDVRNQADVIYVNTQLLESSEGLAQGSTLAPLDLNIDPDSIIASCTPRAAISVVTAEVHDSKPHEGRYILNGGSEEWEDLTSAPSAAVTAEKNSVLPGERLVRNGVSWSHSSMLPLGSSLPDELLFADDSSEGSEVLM

[2] = biological target: T1, MERTK (human (endogenous in H4006)); assay: co-IP; serum-starved parental cells (H4006-par), with or without 10 min GAS6 or EGF, with or without 2 h MRX-2843 and/or OSI, treated with pervanadate; MERTK or EGFR immunoprecipitated from cell lysates, EGFR and MERTK detected by immunoblot

For “EGFR (E746-A750del, as carried by H4006 cells) (from UniProt P00533 25-1210) (receptor)”, the binding [1] was “no binding” and the binding [2] was “binds”.
